Measured values reported in US20090325923A1, “NEW METHOD FOR THE TREATMENT OF INFLAMMATORY DISEASES” (TOPOTARGET SWITZERLAND SA, priority 2006, published 2009).

Test: Total anti-collagen IgG ELISA in CIA mice
Type: in vivo, mouse
Conditions: end of the therapy (day 15)

O=C(/C=C/c1cccnc1)NCCCCC1CCN(C(=O)c2ccccc2)CC1 [FK866, (E)-N-[4-(1-benzoylpiperidin-4-yl)butyl]-3-(pyridine-3-yl)-acrylamide]
difference in anti-collagen IgG levels between control and FK866-treated mice: No significant difference | total anti-collagen IgG levels (treated mice n=15): 106.5+/−17.6 arbitrary units
